Data as given in doi:10.1101/2023.08.29.555364.
Residue numbers refer to the chain shown, from its start. Results are given in words; binding and its absence hold for the method and conditions named. Binding seen in cells or lysates may run through a third protein. Some binding calls cover weakened binding; strength is not graded here. Where a sequence is shown, tags or fusion partners need not be part of it.

Sequences of proteins named here, by UniProt entry; tags and fusion partners are left off. A change or cut given only in a name is not applied to a line headed by its entry. Residues count along the entry.
UniProt P37173, 23-567: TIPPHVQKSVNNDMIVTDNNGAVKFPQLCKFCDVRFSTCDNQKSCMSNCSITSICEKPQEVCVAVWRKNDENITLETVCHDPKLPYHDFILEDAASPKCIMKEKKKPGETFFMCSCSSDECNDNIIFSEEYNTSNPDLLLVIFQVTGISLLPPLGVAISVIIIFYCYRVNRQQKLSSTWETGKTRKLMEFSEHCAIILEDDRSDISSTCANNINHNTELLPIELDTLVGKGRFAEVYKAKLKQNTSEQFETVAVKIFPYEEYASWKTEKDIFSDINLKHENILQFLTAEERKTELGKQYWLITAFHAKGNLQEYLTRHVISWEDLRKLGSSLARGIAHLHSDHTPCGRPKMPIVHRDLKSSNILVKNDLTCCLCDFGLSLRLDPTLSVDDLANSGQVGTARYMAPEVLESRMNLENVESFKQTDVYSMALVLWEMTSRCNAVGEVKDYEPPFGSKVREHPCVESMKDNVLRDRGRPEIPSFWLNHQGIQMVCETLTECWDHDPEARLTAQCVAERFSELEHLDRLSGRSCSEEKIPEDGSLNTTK
UniProt P01137, 279-390: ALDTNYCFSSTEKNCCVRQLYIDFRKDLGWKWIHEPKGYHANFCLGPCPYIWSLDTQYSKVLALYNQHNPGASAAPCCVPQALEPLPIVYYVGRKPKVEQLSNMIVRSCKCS

Experiments:
[1] = molecular target: T1, BG lacking GAG chains (BG-ΔGAG), double Ser-Ala mutant S534A/S545A of HA-tagged human BG (human) (UniProt Q03167); test: co-IP
T1 sequence: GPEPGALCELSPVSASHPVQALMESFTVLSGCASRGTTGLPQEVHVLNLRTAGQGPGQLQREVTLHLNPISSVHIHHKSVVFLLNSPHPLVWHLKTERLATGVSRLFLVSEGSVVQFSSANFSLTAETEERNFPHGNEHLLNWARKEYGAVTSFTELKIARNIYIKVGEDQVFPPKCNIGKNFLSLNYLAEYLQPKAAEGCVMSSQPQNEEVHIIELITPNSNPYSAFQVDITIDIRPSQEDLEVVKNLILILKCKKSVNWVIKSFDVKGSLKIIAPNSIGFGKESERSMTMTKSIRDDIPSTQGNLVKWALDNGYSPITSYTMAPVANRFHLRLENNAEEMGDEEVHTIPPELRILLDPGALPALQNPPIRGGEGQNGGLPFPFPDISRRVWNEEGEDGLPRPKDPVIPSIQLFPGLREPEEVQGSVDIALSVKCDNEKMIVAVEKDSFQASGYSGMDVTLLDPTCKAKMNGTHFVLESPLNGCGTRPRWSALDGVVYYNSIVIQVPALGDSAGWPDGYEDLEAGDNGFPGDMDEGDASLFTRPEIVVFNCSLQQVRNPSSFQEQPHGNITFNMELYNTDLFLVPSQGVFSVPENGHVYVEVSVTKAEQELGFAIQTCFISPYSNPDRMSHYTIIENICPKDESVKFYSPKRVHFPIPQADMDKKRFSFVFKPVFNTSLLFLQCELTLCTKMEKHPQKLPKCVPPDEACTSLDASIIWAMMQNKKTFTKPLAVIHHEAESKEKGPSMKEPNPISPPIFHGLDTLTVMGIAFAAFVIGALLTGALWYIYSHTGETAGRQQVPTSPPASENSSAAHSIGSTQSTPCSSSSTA

[2] = molecular target: T2, Ascites-derived soluble betaglycan (sol-BG) of ovarian cancer patients (human (endogenous in patient ascites fluid)) (UniProt Q03167); test: radioligand binding + cross-linking
T2 sequence (chain, glycosaminoglycan modified (both HS and CS chains)): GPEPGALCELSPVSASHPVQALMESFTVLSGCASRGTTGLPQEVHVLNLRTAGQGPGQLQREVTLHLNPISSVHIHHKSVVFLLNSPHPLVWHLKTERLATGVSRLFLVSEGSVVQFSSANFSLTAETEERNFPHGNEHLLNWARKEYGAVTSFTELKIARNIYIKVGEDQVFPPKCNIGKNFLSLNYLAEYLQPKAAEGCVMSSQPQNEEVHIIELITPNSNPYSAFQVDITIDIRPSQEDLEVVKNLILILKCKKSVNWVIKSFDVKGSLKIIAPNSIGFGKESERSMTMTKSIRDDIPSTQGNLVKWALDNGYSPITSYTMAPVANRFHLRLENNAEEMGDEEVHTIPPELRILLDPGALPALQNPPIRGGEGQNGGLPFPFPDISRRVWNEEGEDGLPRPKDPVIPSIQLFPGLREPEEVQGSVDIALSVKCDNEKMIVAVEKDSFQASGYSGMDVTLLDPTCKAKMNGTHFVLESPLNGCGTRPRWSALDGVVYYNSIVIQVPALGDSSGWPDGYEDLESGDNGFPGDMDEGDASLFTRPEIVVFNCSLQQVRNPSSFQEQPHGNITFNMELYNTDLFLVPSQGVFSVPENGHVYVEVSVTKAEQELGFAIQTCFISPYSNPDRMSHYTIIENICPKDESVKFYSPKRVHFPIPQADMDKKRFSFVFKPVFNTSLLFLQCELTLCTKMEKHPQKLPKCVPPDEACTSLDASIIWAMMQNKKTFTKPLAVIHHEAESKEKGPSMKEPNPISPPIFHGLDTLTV

[3] = molecular target: T3, BG S545A (HS-BG), single GAG attachment site mutant of HA-tagged human BG (human) (UniProt Q03167); test: radioligand binding + cross-linking
T3 sequence (chain, heparan sulfate glycosaminoglycan chains (HS only; called HS-BG)): T1 sequence with A514S

[4] = molecular target: T1, BG lacking GAG chains (BG-ΔGAG), double Ser-Ala mutant S534A/S545A of HA-tagged human BG (human); test: radioligand binding + cross-linking
[5] = molecular target: T4, Shed betaglycan (shed-BG) from FL-BG expressing cells (human) (UniProt Q03167); test: radioligand binding + cross-linking
T4 sequence (chain, glycosaminoglycan chains (glycosylated forms ranging from 90kDa to 250kDa)): T2 sequence (chain, glycosaminoglycan modified (both HS and CS chains))

[6] = molecular target: T5, Shed betaglycan from ΔGAG-BG expressing cells (human) (UniProt Q03167); test: radioligand binding + cross-linking
T5 sequence: T2 sequence (chain, glycosaminoglycan modified (both HS and CS chains)) with S514A, S525A

## TGF-βRII (from UniProt P37173 23-567) (receptor)
[1]
  binding: binds

## [125I]-Bolton-Hunter labeled Transforming Growth Factor-β1 (Human, Recombinant) (from UniProt P01137 279-390) (ligand)
[2]
  binding: binds
[3]
  binding: binds
[4]
  binding: binds
[5]
  binding: binds
[6]
  binding: binds

B1: TGF-βRI (receptor, UniProt P36897 34-503)
chain: LQCFCHLCTKDNFTCVTDGLCFVSVTETTDKVIHNSMCIAEIDLIPRDRPFVCAPSSKTGSVTTTYCCNQDHCNKIELPTTVKSSPGLGPVELAAVIAGPVCFVCISLMLMVYICHNRTVIHHRVPNEEDPSLDRPFISEGTTLKDLIYDMTTSGSGSGLPLLVQRTIARTIVLQESIGKGRFGEVWRGKWRGEEVAVKIFSSREERSWFREAEIYQTVMLRHENILGFIAADNKDNGTWTQLWLVSDYHEHGSLFDYLNRYTVTVEGMIKLALSTASGLAHLHMEIVGTQGKPAIAHRDLKSKNILVKKNGTCCIADLGLAVRHDSATDTIDIAPNHRVGTKRYMAPEVLDDSINMKHFESFKRADIYAMGLVFWEIARRCSIGGIHEDYQLPYYDLVPSDPSVEEMRKVVCEQKLRPNIPNRWQSCEALRVMAKIMRECWYANGAARLTALRIKKTLSQLSQQEGIKM
[1]
  binding: binds
